PubChem BioAssay AID588497 (NMMLSC, 2011)
Hit rate of the full screen: of about 360,000 compounds, about 780 (0.22%) were called active. Inconclusive means that the source gave no clear call. Such entries were picked first, then a sample of the others. Cut-off read from the data, not from the text of the source: active = inhibition above about 35% (passing the limit was not always enough); inconclusive = no clear call, values can overlap the other calls.

Each molecule was assayed on Botulinum neurotoxin type F light chain protease (Clostridium botulinum) (assay: BoNT/F light chain protease inhibitors, primary screen, biochemical, flow cytometry, MLPCN library (AID 588497; note: plate controls were buffer without enzyme for full effect and enzyme alone for no effect)). Details: Multiplex microsphere protease cleavage assay, at 10 µM, hits give high values.

| Structure (SMILES) | inhibition |
| --- | --- |
| Cc1ccc2[nH]c(C(=O)N3CCN(C(c4ccccc4)c4ccccc4)CC3)cc2c1 | inconclusive: 2.5% |
| CC(CNC(=O)c1ccc(C#N)cc1)NC(=O)c1ccc(C#N)cc1 (configuration not stated) | inconclusive: -19.2% |
| CC1=C(C(=O)Nc2ccccc2)S(=O)(=O)CCO1 | inconclusive: -25.9% |
| CC(c1ccccc1)C1CC(=O)N(c2ccc([N+](=O)[O-])cc2)C1=O (configuration not stated) | inconclusive: 4.4% |
| Cn1c2c(c(=O)n(C)c1=O)C(c1cccc(F)c1)C(C#N)=C(N)O2 (configuration not stated) | inconclusive: -34.2% |
| CCOC(=O)N1CCN(C(=O)CN(C2CCCCC2)S(=O)(=O)c2ccc(Cl)cc2)CC1 | inactive: 1.2% |
| O=C(O)C1CCN(C(=O)CCc2ccccc2)CC1 | inconclusive: -4.8% |
| CC(C)C(OC(=O)/C=C/c1ccc2c(c1)OCO2)C(=O)NC(N)=O (configuration not stated) | inactive: 0.6% |
| CN(CCO)c1ccc(-c2n[nH]c(=O)c3ccccc23)cc1[N+](=O)[O-] | inconclusive: -39.6% |
| CN1CCN(c2nc3c(c(=O)[nH]c(=O)n3C)n2CCSc2nnnn2-c2ccccc2)CC1 | inconclusive: -340% |
| CSc1ncccc1C(=O)OCc1ccc(C#N)cc1 | inconclusive: 15.4% |
| Cc1ccc(C)c(NC(=O)C2CCCC2)c1 | inactive: -4.4% |
| CC1C(=O)CC2C3(C)CCC2(C(C)C(=O)O)C(=O)C13 (configuration not stated) | inactive: -5.8% |
| CC(=O)c1ccc2cc3c(cc2c1)OCO3 | inactive: -4.4% |
| O=C(CC(=O)c1ccccc1)Nc1cc([N+](=O)[O-])ccc1Cl | inconclusive: 0.9% |
| Cc1ccc(C(=O)Nc2cccnc2)cc1Cl | inconclusive: 20.8% |
| CC(C)Oc1ccc(S(=O)(=O)N2CCOCC2)cc1NC(=O)C(C)Oc1ccc(F)cc1 (configuration not stated) | inactive: -5.3% |
| COC(=O)c1ccccc1NC(=O)Cn1cnc([N+](=O)[O-])c1 | inconclusive: 18.4% |
| O=C(NC(=O)c1c(F)cccc1F)O/N=C1\CCCc2occc21 | inconclusive: 6.9% |
| CCCN1CCN(CCCNC(=O)c2ccc3nc(N4CCCCC4)sc3c2)CC1 | inactive: -3.6% |
| Cc1cc(O)c(C(=O)/C=C/c2ccc(Cl)cc2)c(=O)o1 | inconclusive: 8.9% |
| COc1ccc(N2CCN(C(CNC(=O)C(=O)NCCCn3ccnc3)c3ccco3)CC2)cc1 (configuration not stated) | inactive: -2.5% |
| O=C(Cn1nnc2c(cnn2-c2ccccc2)c1=O)NCc1cccs1 | inconclusive: 37.6% |

Quoted at random: 5 records from the list.

| Structure (SMILES) | inhibition |
| --- | --- |
| Cc1ccc(C(=O)Nc2cccnc2)cc1Cl | inconclusive: 20.8% |
| CC(CNC(=O)c1ccc(C#N)cc1)NC(=O)c1ccc(C#N)cc1 (configuration not stated) | inconclusive: -19.2% |
| COC(=O)c1ccccc1NC(=O)Cn1cnc([N+](=O)[O-])c1 | inconclusive: 18.4% |
| Cc1ccc2[nH]c(C(=O)N3CCN(C(c4ccccc4)c4ccccc4)CC3)cc2c1 | inconclusive: 2.5% |
| CCOC(=O)N1CCN(C(=O)CN(C2CCCCC2)S(=O)(=O)c2ccc(Cl)cc2)CC1 | inactive: 1.2% |

(list continues)

| Structure (SMILES) | inhibition |
| --- | --- |
| Cc1cccc(NC(=O)NCc2ccc3c(c2)cc(C)n3C)c1 | inactive: -149% |
| COc1ccc(CN2CCC(CO)(Cc3ccccc3C(F)(F)F)CC2)c(F)c1 | inactive: -4.1% |
| O=S(=O)(c1ccc2ccccc2c1)N1CCc2ccccc21 | inconclusive: 1.7% |
| COc1ccc(S(=O)(=O)NCC2CCCO2)cc1NC(=O)c1ccccc1F (configuration not stated) | inactive: 1.7% |
| COc1cccc(Oc2cnc(N)nc2-c2ccc(OC)cc2O)c1 | inactive: -34.3% |
| COc1ccc(C(=O)N2CCC2(C)C(=O)O)cc1C(F)(F)F (configuration not stated) | inactive: 11.2% |
| COc1ccc(S(=O)(=O)N2CCOC2CNC(=O)C(=O)NCCN2CCOCC2)cc1 (configuration not stated) | inconclusive: 6.6% |
| CCCNC(=O)C1(C)CCCN(Cc2c(F)cccc2F)C1 (configuration not stated) | inactive: 0.1% |
| COc1ccc2c(Cl)c(C(=O)N/N=C/c3ccc4c(c3)OCO4)sc2c1 | inactive: -77.2% |
| CN(C)c1ccc(/C=N/N(CCO)C2=NS(=O)(=O)c3ccccc32)cc1 | inconclusive: -7.2% |
| CC(C)CCNC(=O)C1CCC(CNS(=O)(=O)c2cccc3nsnc23)CC1 (configuration not stated) | inactive: -3.4% |
| Cc1ccccc1OCC(=O)N1N=C(c2cccnc2)CC1(O)C(F)(F)F (configuration not stated) | inactive: 2.1% |
| O=C(COC(=O)CNC(=O)c1ccco1)NCCN1C(=O)CSC1=O | inactive: 3.9% |
| CN(C)c1ccc(-c2ccnc3c2CC(C)(C(=O)NCc2cccs2)O3)cc1 (configuration not stated) | inactive: 0.1% |
| CCCCCCN(C(=O)CCCN1C(=O)NC(c2ccc([N+](=O)[O-])cc2)C(C(=O)OCc2ccccc2)=C1C)C(C)C(=O)NCCCC (configuration not stated) | inactive: -2% |
| Cc1ccc(NC(=O)C2=C(C(=O)O)CCCC2)cc1F | inactive: 2.4% |
| COc1ccc(CCC(=O)N/N=C/c2ccc3c(c2)OCO3)cc1 | inconclusive: 15.5% |
| Cc1ccc(S(=O)(=O)Nc2nc3ccccc3nc2N2CCN(c3ccccc3F)CC2)cc1 | inconclusive: -4.1% |
| Cc1nnc(SCC(=O)NC(C)(C)C)n1NCc1ccc(Cl)cc1 | inactive: -1.1% |
| O=C(CCCC(=O)OCC(Cl)=C(Cl)Cl)Nc1ccc(F)cc1 | inactive: -14.3% |
| Cc1nnc(NS(=O)(=O)c2ccc(Br)cc2)s1 | inconclusive: 30.4% |
| CN(C)NC(=S)NC1(C)CCS(=O)(=O)C1 (configuration not stated) | inconclusive: 7.9% |
| CCOC(=O)COc1ccc(C(c2c(C)[nH][nH]c2=O)c2c(C)[nH][nH]c2=O)cc1 | inconclusive: -5.1% |

| Structure (SMILES) | inhibition |
| --- | --- |
| Cc1ccccc1OCc1n[nH]c(=S)n1-c1cccc(Cl)c1 | inconclusive: 6.3% |
| Nc1ccc(Oc2ccc3c(c2)C(=O)N(CC2CCCO2)C3=O)cc1 (configuration not stated) | inconclusive: 8.8% |
| COc1ccc2nc(C)cc(N/N=C/c3ccc(F)cc3)c2c1 | inconclusive: -10.1% |
| CC(OC(=O)CCC(=O)c1ccccc1)C(=O)Nc1ccc(F)cc1 (configuration not stated) | inconclusive: -19.6% |
| Cc1cc(C)c(OCC(=O)OCC(=O)NC2CCC(C)CC2)c(C)c1 (configuration not stated) | inconclusive: 2.9% |
| O=C(CCN=C1NS(=O)(=O)c2ccccc21)OCc1ccccc1 | inconclusive: 2.9% |
| CCCCn1c(N(CCOC(C)=O)C(C)=O)nc2ccccc21 | inactive: 7% |
| O=C(NC1CCCC1)C(c1ccncc1)N(C(=O)Cn1nnc(-c2ccccc2F)n1)c1cccc(F)c1 (configuration not stated) | inactive: -11.5% |
| CCCCN(C(=O)c1ccc([N+](=O)[O-])s1)c1c(N)n(CC(C)C)c(=O)[nH]c1=O | inconclusive: -8.7% |
| COc1ccccc1CCC(=O)OCC(=O)Nc1c(C)nn(-c2ccccc2)c1C | inactive: 1.6% |
| CCc1nnc(NS(=O)(=O)c2ccc(NC(=O)/C=C/C(=O)O)cc2)s1 | inconclusive: -14.1% |
| COc1ccc(CC(=O)Oc2ccc(C#N)cc2)cc1 | inconclusive: 25.3% |
| COc1ccc(C2SCC(=O)N2c2ccc(C)cc2)cc1 (configuration not stated) | inconclusive: 6.3% |
| COc1cccc(C2=CC(=O)CC(C)(C)C2=O)c1 | inactive: 3.9% |
| CC(OC(=O)Cc1c[nH]c2ccccc12)C(=O)Nc1ccc(S(N)(=O)=O)cc1 (configuration not stated) | inactive: -0.9% |
| CCCn1cnc2cc(NCc3cccs3)ccc21 | inactive: -2.5% |
| Fc1ccc(Oc2cnc3ccccc3n2)cc1 | inactive: 0.2% |
| CCN1CCCC1CNC(=O)C1CCCN(S(=O)(=O)c2cccc3nsnc23)C1 (configuration not stated) | inconclusive: -25.4% |
| CCCCOc1ccc(Cc2c(O)nc(SC)[nH]c2=O)cc1 | inconclusive: -5.9% |
| CCOc1ccc(-n2ccnc(SCC(=O)Nc3cccc(OC)c3)c2=O)cc1 | inconclusive: -33.2% |
| Clc1cccc(CN2CCSCC2)c1Cl | inconclusive: 20.7% |
| Cc1cc(C)c(C)c(S(=O)(=O)N2C(=S)NC(=O)C2CC(C)C)c1C (configuration not stated) | inconclusive: -55.1% |
| COc1cc(C2C3=C(Nc4nc(N)[nH]c(=O)c42)c2ccccc2C3=O)ccc1O (configuration not stated) | inactive: 2.8% |

| Structure (SMILES) | inhibition |
| --- | --- |
| CCCN1C(=O)C(=O)c2cc(Cl)ccc21 | inactive: 2% |
| CC(C)C(C)(C#N)NC(=O)CSc1nc(C2CCCCC2)n(-c2ccccc2)n1 (configuration not stated) | active: 37.5% |
| CSC1=C(C#N)C(=O)NC(c2ccc(Cl)cc2)S1 (configuration not stated) | inconclusive: -26.7% |
| CCOC(=O)Cn1c(-c2ccc(OC)cc2)c(-c2ccc(OC)cc2)nnc1=O | inconclusive: 38.1% |
| O=C(C1CC(c2ccccc2O)=NO1)N1CCCC1 (configuration not stated) | inactive: 3% |
| COc1cc(OC)c(C(=O)NC23CC4CC(CC(C4)C2)C3)cc1OC | inconclusive: -35.6% |
| COC(=O)c1nnn(CC(=O)NC(=O)Nc2cccc(Cl)c2C)c1C(=O)OC | inactive: -7.5% |
| COc1cc(/C=N/NC(=S)NCCN2CCOCC2)ccc1O | inactive: -9.9% |
| Cc1cccc(N)c1-c1c(C)cccc1N | inactive: 0.6% |
| CC(=O)/C(=N/Nc1cccc(Cl)c1)N1CCOCC1 | inactive: -12.1% |
| O=[N+]([O-])c1cc([As](=O)(O)c2ccc(O)c([N+](=O)[O-])c2)ccc1O | inconclusive: 22.8% |
| Clc1ccc(N2CCN(/N=C/c3ccncc3)CC2)cc1 | inconclusive: -53% |
| CCCn1nnnc1NCc1ccccc1F | inconclusive: -21.2% |
| O=C(CN1CC[C@@]2(O)CCCC[C@H]2[C@@H]1c1ccc(F)cc1)NCc1ccco1 | inconclusive: -76% |
| CCN(CC)C(=O)c1ccc2sc([C@@H]3O[C@H](CO)[C@H](O)[C@H](O)[C@H]3O)nc2c1 | inactive: 0.4% |
| O=c1c2ccccc2cnn1-c1ccc2ccccc2c1 | inactive: -10.5% |
| COc1ccc(NC(=O)CN(C)CC(=O)N2CCCCCC2)cc1 | inconclusive: -7% |
| CC(=NCc1ccc2c(c1)OCO2)c1c(O)n(-c2ccccc2)c(=O)[nH]c1=O | inconclusive: -21.7% |
| O=C(Nc1ccc(F)c(Cl)c1)Nc1csc2ccccc12 | inconclusive: 7.2% |
| Cc1ccc(S(=O)(=O)NCCNC(=O)CN2CCOCC2)cc1 | inactive: -2.5% |
| CN(C(=O)c1ccncc1)c1ccccc1 | inconclusive: -25.8% |
| C/C(=N/NC(=O)CCc1c(C)n[nH]c1C)c1cccc([N+](=O)[O-])c1 | inconclusive: 10.2% |
| CCCOc1ccc(-c2nc(C#N)c(NCCCn3ccnc3)o2)cc1 | active: 57.7% |
